This experiment deals with Candida albicans. Briefly: In vitro antimicrobial activity against Candida albicans. The class given is cell-based. Conditions: Table 12, lowest concentration that allows no detectable growth, read-out: C. albicans MIC (minimum inhibitory concentration). The method, then:
Fifty organic extracts were prepared from 25 whole broth of four microbial strains (MS1479, MS2379, MS2820, and MS2414), which were fermented in different media for the antimicrobial testing. Note each whole broth culture generated one n-butanol extract from cultural supernatant and one methanol extract from cell pellets.
The antimicrobial activities of the 50 organic extracts were studied against three fungal pathogens—Candida albicans, Aspergillus fumigatus, and Cryptococcus neoformans—and five bacterial strains-Methicillin-resistant Staphylococcus aureus (MIRSA), Escherichia coli, Pseudomonas aeruginosa, Klebsiella pneumoniae, and Vancomycin-resistant Enterococcus faecium (VRE) (FIG. 2). The test concentrations for all extracts were in the range of 8-200 μg/mL (Table 3).
The antimicrobial activities of identified fusaricidins were in an in vitro study against several clinically relevant microbes. […] For the in-vitro assays against bacteria, fusaricidins were tested against methicillin-resistant Staphylococcus aureus, vancomycin-resistant Enterococcus faecium, Escherichia coli, and Pseudomonas aeruginosa using four antibacterial drugs methicillin, vancomycin, cefotaxime, and meropenem as controls. […]

The structures appear in SMILES notation. ≈ marks a conversion by molar mass, not a printed value.

Data on one compound can be found in patent publication US12274732B2, “Anti-pathogen composition and methods of use thereof” (Tenfold Technologies, LLC, priority 2017, dated 2025).

In the case of `OC(Cn1cncn1)(Cn1cncn1)c1ccc(F)cc1F` [Fluconazol], the MIC came out at 1.6 µg/mL (≈ 5.22 µM).
